Laboratory results taken from PubChem BioAssay AID504375 (National Center for Advancing Translational Sciences (NCATS), 2011).
The whole screen tested about 1,600 compounds, of which about 25 (2%) were called active. Roughly 7% stayed inconclusive and do not appear here. Calls follow the shape of the dose curve; as a rule, active = well fitted inhibition curve with a large enough effect; inconclusive = small, poorly fitted or top-dose-only effect, or effect the other way; inactive = no such curve, though single readings can be large or run the other way. This is one part of the list.

By UniProt entry, the sequences of proteins in these tests, tags left out.
UniProt Q01196, whole entry, looked up: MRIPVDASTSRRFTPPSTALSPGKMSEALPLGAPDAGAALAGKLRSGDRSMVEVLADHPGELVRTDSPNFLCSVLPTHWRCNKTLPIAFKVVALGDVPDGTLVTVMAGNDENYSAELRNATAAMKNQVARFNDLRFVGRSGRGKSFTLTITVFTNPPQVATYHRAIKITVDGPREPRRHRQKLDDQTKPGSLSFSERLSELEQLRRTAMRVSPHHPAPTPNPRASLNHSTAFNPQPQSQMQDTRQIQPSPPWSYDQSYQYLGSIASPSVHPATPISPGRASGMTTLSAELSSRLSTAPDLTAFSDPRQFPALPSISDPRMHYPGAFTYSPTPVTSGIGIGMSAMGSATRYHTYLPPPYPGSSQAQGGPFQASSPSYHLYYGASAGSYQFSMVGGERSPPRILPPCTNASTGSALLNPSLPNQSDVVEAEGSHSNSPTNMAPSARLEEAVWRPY
UniProt Q13951, whole entry, looked up: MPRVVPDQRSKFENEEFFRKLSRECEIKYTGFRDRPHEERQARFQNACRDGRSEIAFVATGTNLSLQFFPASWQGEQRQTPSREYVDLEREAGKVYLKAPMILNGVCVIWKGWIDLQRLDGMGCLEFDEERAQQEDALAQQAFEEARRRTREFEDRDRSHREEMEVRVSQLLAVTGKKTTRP

target: Runt-related transcription factor 1 (Homo sapiens) + Core-binding factor subunit beta (Homo sapiens) (UniProt Q01196+Q13951); experiment: qHTS Assay for Compounds Blocking the Interaction Between CBF-beta and RUNX1 for the Treatment of Acute Myeloid Leukemia: Hit Validation with Orthogonal Assay; conditions: CBFbeta-RUNX1 binding orthogonal assay, biochemical; series mostly up to 41 µM; activity change, negative = inhibition: at the top concentration
In short: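 This is an orthogonal TR-FRET assay. His6-CBF-beta and biotin-RUNX1 (30 nM each) were preincubated with compound for 30 min, then Tb-anti-His antibody (0.44 ng) and streptavidin-XL665 (5 nM) were added. The signal was read after 90 min.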
% is scaled to controls: 0 for no effect and ±100 for the full control effect; potency is read from the fitted curve at half-maximal effect.

Row | SMILES | activity change, negative = inhibition | Potency
1 | O=C(O)c1cc(NN=C2CCN(Cc3ccccc3)CC2)ccc1Cl | inactive: -0.979% | –
2 | NC(=O)C1CCN(c2c([N+](=O)[O-])cc(C(F)(F)F)cc2[N+](=O)[O-])CC1 | inactive: 51.5% | –
3 | O=C(NN1C(=O)C2CCCCC2C1=O)c1ccco1 (stereo not drawn) | inactive: -0.159% | –
4 | Cc1cc(=O)[nH]c2c1c(-c1ccccc1)nn2C | inactive: -7.17% | –
5 | O=C(NCCC(=O)N1CCOCCOCCOCCOCC1)OCc1ccccc1 | inactive: -6.46% | –
6 | C=CCn1c(SCc2n[nH]c(=S)n2-c2ccccc2)nnc1-c1ccccc1 | inactive: 9.91% | –
7 | COCc1cc(=O)n2[nH]c(C(C)(C)C)cc2n1 | inactive: -2.01% | –
8 | CCc1c(C#N)sc(C(N)=O)c1CC | inactive: -0.832% | –
9 | CCCOc1ccc(C(=O)NC(=S)NNC(=O)c2c(-c3ccccc3)noc2C)cc1 | inactive: 8.42% | –
10 | O=c1c(O)cccc2cc(O)c(O)c(O)c12 | – | active: 1.26 µM
11 | Cc1cccc(C)c1N1C(=O)[C@@H]2C(c3ccccc3Cl)=NO[C@@H]2C1=O | inactive: 1.27% | –
12 | CCOc1ccccc1/C=C(/C#N)C(N)=O | inactive: -2.47% | –
13 | Cn1c2ccccc2c(=O)c2c(=O)n(Cc3ccccc3)c(-c3ccc(F)cc3)nc21 | inactive: 4.67% | –
14 | Cc1onc(-c2c(Cl)cccc2Cl)c1NC(=O)NC1CCSC1 (stereo not drawn) | inactive: 0.122% | –
15 | N#C/C(=N\Nc1ccccc1)C(=N)N1CCCCCC1 | inactive: 16.5% | –
16 | c1ccc(CSc2ccc(-c3ccccn3)nn2)nc1 | inactive: 1.03% [at 82.4 µM] | –
17 | COC(=O)/C=C(\C)N=Nc1c(O)[nH]c2ccccc12 | inactive: 0.355% | –
18 | COc1ccc(CCNc2c3ccccc3nc3ccccc23)cc1OC | inactive: 38.1% | –
19 | CSc1nc(SCC(=O)O)c2sc3nc(-c4ccccc4)c4c(c3c2n1)CCC4 | inactive: 1.36% | –
20 | CCN1CCN(Cc2cc(=O)oc3ccc(C)cc23)CC1 | inactive: 0.208% | –
21 | CCCS(=O)(=O)c1c(S(=O)(=O)CCC)c2cnccn2c1C(=O)c1ccc(OC)cc1 | inactive: 7.28% | –
22 | c1ccc(-c2ccc(-c3ccccn3)s2)nc1 | inactive: 38.8% | –
23 | Nc1nc(CCl)nc(Nc2cccc3ccccc23)n1 | inactive: -21% | –
24 | COC(=O)c1scc(C)c1S(=O)(=O)Nc1ccc(C)cc1 | inactive: 4.6% | –
25 | CC(C)c1nc2oc3c(N(C)CCO)ncnc3c2c2c1CCC2 | inactive: -6.9% | –

Row | SMILES | activity change, negative = inhibition | Potency
26 | COc1ccc(C(=O)CSc2nnc3n2CCCN3C(=O)Nc2ccccc2)cc1 | inactive: 4.14% | –
27 | CC(=O)Nc1ccc(S(=O)(=O)Nc2cc(-c3ccccc3)nn2C)cc1 | inactive: 17.3% | –
28 | Cn1cc(NC(=O)Nc2ccc(C(F)(F)F)cc2)c(C(F)(F)F)n1 | inactive: -3.45% | –
29 | COc1cccc(C2/C(=C(/O)c3ccccc3)C(=O)C(=O)N2Cc2ccco2)c1 (stereo not drawn) | inactive: 4.5% | –
30 | O=C(Oc1c(-c2ccccc2)c(=O)n2c3c(cccc13)CC2)c1ccco1 | inactive: 5.11% | –
31 | COC(=O)c1[nH]c2cc(OC)ccc2c1NC(=O)c1c(F)cccc1F | inactive: -0.685% | –
32 | O=C(OCC1OC(OC(=O)c2cc(O)c(O)c(OC(=O)c3cc(O)c(O)c(O)c3)c2)[C@@H](OC(=O)c2cc(O)c(O)c(OC(=O)c3cc(O)c(O)c(O)c3)c2)C(OC(=O)c2cc(O)c(O)c(OC(=O)c3cc(O)c(O)c(O)c3)c2)C1OC(=O)c1cc(O)c(O)c(OC(=O)c2cc(O)c(O)c(O)c2)c1)c1cc(O)c(O)c(OC(=O)c2cc(O)c(O)c(O)c2)c1 (stereo partly drawn) | – | active: 10 µM
33 | c1cnc2ccc3ncccc3c2c1 | inactive: -18.1% | –
34 | S=c1[nH]c2cc3ccccc3cc2[nH]1 | inactive: 22.5% | –
35 | Cn1cc(Br)c(NC(=O)/C=C/C(=O)O)n1 | inactive: -1.84% | –
36 | O=c1nc(SCc2ccc(Cl)cc2)nc(-c2ccccc2)[nH]1 | inactive: -4.14% | –
37 | C=CCSC(CC)(CC)C(N)=O | inactive: -3.22% | –
38 | O=C(CCCCl)NC(=S)Nc1ccc(N2CCOCC2)cc1 | inactive: 0.404% | –
39 | CC(C)(C)c1ccc(NC(=S)NCc2cccnc2)cc1 | inactive: -6.7% | –
40 | S=C1SCN(Cc2ccco2)CN1Cc1ccco1 | inactive: 7.9% | –
41 | NC(=O)c1cccnc1Oc1ccc(Cl)cc1 | inactive: -4.34% | –
42 | COc1ccc([N+](=O)[O-])c(S(=O)(=O)c2ccccc2)n1 | inactive: 40.8% | –
43 | C/C(=N\Nc1cccc(Cl)c1)C1(C)N(O)C(C)(C)C(c2ccco2)=[N+]1[O-] (stereo not drawn) | inactive: 18.1% | –
44 | Cc1cnc(NS(=O)(=O)c2ccc(Cl)cc2)c(Br)c1 | inactive: -13.8% | –
45 | CCOC(=O)C1=C(C)N(CC(C)C)C(=O)/C1=C\c1cccs1 | inactive: 14.3% | –
46 | O=c1c2cc(-c3ccccc3)sc2nc2n1N=C(c1ccccc1)CS2 | inactive: -8.36% | –
47 | Cn1c(=O)c2cc3ccc(Cl)cc3nc2n(C)c1=O | inactive: 20.1% | –
48 | CCn1c(SCC(=O)Nc2c(C#N)cnn2-c2ccccc2)nnc1-c1cccs1 | inactive: 6.31% | –
49 | Cc1ccc(C#CC(C)(O)C(C)(C)C)cn1 (stereo not drawn) | inactive: -7.33% | –
50 | CC(C)(C)c1ccc(CCC2OCC(CN3CCOCC3)O2)cc1 (stereo not drawn) | inactive: -4.47% | –

Row | SMILES | activity change, negative = inhibition | Potency
51 | Cc1nn(C)c(C)c1NC(=O)/C(C#N)=C\N(C)C | inactive: -5.6% | –
52 | COc1cc(-c2noc(C)n2)cc(OC)c1OC | inactive: 1.19% | –
53 | O=C(O)c1ccc(S(=O)(=O)Nc2cccc(CP(=O)(c3ccccc3)c3ccccc3)c2)cc1 | inactive: -7.66% | –
54 | COC(=O)C1=C(C)Nc2c(c(=O)n(C)c(=O)n2C)C1c1cccc(O)c1 (stereo not drawn) | inactive: -5.82% | –
55 | COc1ccc(-c2nc(-c3cccnc3)no2)cc1OC | inactive: 5.75% | –
56 | CC(C)N1CN(c2ccccc2)C(=S)N(c2ccccc2)C1 | inactive: 6.57% | –
57 | Cc1ccc(CNc2nc(N)c([N+](=O)[O-])c(NCCO)n2)cc1 | inactive: 28.8% | –
58 | N#CCc1cnc2ccccc2n1 | inactive: 23.1% | –
59 | Clc1ccc(-c2ccccc2)nn1 | inactive: 11.3% | –
60 | CCN(CC)c1ncc(C#N)c(N)n1 | inactive: -7.89% | –
61 | CCN(CC)S(=O)(=O)c1cccc(C(=O)N/N=C2\CCCC(=O)C2)c1 | inactive: 19.9% | –
62 | CNC(=O)n1cc(C)c(-c2cccs2)n1 | inactive: -2.9% | –
63 | COC(=O)c1ccc(S(=O)(=O)NCc2ccco2)n1C | inactive: 0.869% | –
64 | CC1(C)Cc2c(c(=S)nc(-c3ccccc3)n2Cc2cccnc2)CO1 | inactive: 18.4% | –
65 | Cc1ccc(C[n+]2cc(-c3ccc(Cl)cc3)n3c2CCC3)cc1 | inactive: 16.3% | –
66 | CCOC(=O)NC1=NCC(C)S1 (stereo not drawn) | inactive: -3.45% | –
67 | Cc1ccc(Cc2cc(C)n[nH]c2=O)cc1 | inactive: -6.34% | –
68 | Cc1ccccc1-c1noc(-c2ccccc2C(=O)NCC2CCCO2)n1 (stereo not drawn) | inactive: -11.2% | –
69 | Cc1cc(C)nc(N2N=C(C(F)(F)F)CC2=O)n1 | inactive: -12.4% | –
70 | Cc1n[nH]c(C)c1CCC(=O)N/N=C/c1cccs1 | inactive: 15.4% | –
71 | Cc1cc(N2CCN(C(=O)c3ccco3)CC2)c2ccccc2n1 | inactive: -3.52% | –
72 | CCOC(=O)c1c(NC(=S)NC)sc2c1CCCC2 | inactive: 1.57% | –
73 | COCc1cc(=O)n2[nH]c(-c3cccs3)cc2n1 | inactive: 3.23% | –

Molecules shown so far that have a nitro group on carbon:
Row | SMILES | activity change, negative = inhibition | Potency
2 | NC(=O)C1CCN(c2c([N+](=O)[O-])cc(C(F)(F)F)cc2[N+](=O)[O-])CC1 | inactive: 51.5% | –
42 | COc1ccc([N+](=O)[O-])c(S(=O)(=O)c2ccccc2)n1 | inactive: 40.8% | –
57 | Cc1ccc(CNc2nc(N)c([N+](=O)[O-])c(NCCO)n2)cc1 | inactive: 28.8% | –

As entered above:
COc1cc(-c2noc(C)n2)cc(OC)c1OC – activity change, negative = inhibition: inactive: 1.19%
Cc1cccc(C)c1N1C(=O)[C@@H]2C(c3ccccc3Cl)=NO[C@@H]2C1=O – activity change, negative = inhibition: inactive: 1.27%
